Source: article doi:10.1101/2024.07.12.603229
No constants are given. Whether binding was seen depends on the method and setting. In cells and extracts the contact can be indirect. A result given as binding can be weak or reduced; the word gives no strength.

Protein sequences, listed by entry. Tags and fused reporters are not part of them. Residues count along the entry.
UniProt O22476, residues 24-1196: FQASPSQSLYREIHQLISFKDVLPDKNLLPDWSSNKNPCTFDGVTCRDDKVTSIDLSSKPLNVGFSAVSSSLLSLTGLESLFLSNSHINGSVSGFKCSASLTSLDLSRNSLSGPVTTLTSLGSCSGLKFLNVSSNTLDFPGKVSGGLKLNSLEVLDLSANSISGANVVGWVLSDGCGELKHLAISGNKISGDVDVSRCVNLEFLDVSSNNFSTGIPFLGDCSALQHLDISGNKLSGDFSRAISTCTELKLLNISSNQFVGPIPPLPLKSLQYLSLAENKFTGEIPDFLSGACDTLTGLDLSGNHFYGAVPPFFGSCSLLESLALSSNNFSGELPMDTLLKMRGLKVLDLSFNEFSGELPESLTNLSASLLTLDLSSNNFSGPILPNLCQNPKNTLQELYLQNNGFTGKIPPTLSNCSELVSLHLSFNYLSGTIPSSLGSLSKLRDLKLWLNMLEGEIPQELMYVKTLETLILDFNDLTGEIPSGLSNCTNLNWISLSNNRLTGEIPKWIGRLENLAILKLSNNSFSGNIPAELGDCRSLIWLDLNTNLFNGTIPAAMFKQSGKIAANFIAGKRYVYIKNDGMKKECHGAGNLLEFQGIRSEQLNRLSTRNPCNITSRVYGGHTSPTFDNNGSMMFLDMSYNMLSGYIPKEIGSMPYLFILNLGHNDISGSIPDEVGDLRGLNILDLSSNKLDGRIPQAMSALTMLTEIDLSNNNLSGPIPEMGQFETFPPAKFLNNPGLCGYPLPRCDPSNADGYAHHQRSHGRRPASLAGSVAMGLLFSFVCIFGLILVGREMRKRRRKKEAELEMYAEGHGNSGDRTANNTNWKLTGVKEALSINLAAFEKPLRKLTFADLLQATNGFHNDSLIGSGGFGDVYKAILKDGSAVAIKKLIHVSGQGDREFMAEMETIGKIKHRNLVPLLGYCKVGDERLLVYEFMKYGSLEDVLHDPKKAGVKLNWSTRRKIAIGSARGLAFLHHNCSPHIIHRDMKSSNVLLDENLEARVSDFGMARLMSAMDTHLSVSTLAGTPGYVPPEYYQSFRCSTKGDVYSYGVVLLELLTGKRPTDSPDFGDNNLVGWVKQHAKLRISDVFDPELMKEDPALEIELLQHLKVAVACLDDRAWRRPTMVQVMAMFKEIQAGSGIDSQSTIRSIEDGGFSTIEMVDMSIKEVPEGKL
UniProt Q9ZWC8, residues 22-1166: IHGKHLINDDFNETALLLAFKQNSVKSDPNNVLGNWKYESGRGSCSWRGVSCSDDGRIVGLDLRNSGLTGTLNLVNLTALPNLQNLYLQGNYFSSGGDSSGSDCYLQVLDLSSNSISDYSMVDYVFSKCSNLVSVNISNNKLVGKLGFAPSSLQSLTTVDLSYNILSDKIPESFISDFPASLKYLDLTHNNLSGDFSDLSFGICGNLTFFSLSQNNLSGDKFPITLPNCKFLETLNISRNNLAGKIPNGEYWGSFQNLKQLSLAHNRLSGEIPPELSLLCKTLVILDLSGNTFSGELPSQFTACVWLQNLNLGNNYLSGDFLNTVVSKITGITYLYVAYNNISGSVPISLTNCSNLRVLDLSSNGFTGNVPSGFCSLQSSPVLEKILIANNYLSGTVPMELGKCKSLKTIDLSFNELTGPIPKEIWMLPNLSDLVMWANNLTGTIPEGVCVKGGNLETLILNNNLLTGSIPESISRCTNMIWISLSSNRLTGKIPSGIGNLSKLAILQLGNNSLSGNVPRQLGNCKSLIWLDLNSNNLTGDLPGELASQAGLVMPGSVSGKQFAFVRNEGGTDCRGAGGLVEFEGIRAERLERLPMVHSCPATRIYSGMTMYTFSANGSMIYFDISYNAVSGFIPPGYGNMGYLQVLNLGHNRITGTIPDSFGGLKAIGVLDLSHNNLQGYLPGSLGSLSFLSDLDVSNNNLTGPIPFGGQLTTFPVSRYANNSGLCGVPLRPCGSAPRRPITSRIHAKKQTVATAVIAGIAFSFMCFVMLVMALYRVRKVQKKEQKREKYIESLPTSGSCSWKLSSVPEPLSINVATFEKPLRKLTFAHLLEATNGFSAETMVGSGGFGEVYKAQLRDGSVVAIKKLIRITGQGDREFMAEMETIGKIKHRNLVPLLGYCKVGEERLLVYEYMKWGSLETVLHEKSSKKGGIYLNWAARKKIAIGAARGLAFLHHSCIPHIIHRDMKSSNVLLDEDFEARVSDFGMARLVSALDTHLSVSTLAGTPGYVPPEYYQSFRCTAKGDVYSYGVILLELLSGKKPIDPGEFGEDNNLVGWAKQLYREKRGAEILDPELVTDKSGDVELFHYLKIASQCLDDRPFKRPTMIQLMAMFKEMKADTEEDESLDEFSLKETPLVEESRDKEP
UniProt Q9LJF3, residues 24-1164: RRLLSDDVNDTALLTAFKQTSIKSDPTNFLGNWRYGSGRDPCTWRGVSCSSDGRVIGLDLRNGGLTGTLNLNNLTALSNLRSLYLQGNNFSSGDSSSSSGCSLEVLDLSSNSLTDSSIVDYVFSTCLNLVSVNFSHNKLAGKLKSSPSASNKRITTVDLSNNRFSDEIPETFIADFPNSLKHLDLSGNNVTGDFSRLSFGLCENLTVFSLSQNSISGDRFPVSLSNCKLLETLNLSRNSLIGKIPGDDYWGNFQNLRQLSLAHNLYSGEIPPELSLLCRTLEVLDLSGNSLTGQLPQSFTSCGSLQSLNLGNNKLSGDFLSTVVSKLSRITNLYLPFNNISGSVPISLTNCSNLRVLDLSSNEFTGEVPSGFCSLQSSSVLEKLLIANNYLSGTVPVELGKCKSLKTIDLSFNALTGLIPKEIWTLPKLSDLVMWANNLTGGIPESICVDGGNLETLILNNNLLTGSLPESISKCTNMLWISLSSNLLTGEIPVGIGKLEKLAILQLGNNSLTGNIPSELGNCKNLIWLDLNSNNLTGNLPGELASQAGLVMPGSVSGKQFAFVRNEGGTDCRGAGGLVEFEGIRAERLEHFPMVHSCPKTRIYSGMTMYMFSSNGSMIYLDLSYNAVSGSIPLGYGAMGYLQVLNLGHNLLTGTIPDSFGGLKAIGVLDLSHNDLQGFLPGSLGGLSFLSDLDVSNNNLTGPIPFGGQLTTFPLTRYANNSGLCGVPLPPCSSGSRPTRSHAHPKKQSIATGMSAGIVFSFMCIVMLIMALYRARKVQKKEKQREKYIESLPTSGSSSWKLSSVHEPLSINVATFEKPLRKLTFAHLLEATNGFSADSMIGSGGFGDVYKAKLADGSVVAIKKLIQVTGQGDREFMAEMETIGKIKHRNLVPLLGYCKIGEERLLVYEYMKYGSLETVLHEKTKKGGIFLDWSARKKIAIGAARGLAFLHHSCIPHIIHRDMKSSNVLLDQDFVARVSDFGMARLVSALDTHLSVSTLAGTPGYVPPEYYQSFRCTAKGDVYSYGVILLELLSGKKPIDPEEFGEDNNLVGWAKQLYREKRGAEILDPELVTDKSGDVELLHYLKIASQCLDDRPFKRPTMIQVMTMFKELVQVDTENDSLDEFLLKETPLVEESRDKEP

Key:
Assay in all cases: split reporter
[1] = target: BRI1-mCitN (35S::BRI1-mCitN), BiFC fusion (Arabidopsis thaliana) (UniProt O22476)
BRL1, BiFC fusion = BRL1, BiFC fusion (UniProt Q9ZWC8)
BRL3, BiFC fusion = BRL3, BiFC fusion (UniProt Q9LJF3)

Measured: binding

MBAP1-mCitC (35S::MBAP1-mCitC), BiFC fusion (from UniProt Q9LQI8)
binds: all assays above
